Assay results published in PMC10223935.
These are yes or no findings as the source states them, for the method shown. Binding seen in cells or lysates may run through a third protein. Some entries that bind do so weakly or less than the wild type.

The chains behind the UniProt entries cited, without tags or fusion partners.
UniProt P10415: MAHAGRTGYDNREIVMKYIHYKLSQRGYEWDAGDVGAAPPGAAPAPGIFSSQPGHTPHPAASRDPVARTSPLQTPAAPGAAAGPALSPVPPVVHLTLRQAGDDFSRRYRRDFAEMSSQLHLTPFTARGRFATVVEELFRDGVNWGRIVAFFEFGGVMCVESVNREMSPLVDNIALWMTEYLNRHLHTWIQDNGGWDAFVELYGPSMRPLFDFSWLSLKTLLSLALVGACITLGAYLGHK
UniProt Q14457: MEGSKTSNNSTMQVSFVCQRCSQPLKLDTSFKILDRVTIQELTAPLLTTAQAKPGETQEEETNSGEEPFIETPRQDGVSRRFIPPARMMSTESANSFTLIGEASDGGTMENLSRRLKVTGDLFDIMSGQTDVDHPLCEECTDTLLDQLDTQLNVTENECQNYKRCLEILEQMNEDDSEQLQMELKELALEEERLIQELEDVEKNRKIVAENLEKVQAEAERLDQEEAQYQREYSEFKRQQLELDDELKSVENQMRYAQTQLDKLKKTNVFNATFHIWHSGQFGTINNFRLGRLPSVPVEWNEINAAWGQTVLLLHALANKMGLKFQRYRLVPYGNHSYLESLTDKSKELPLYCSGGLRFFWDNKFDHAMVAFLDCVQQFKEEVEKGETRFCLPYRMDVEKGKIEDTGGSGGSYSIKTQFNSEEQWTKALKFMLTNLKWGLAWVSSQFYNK

Molecular target: Bcl-2 (human (endogenous in HEK293T)) (UniProt P10415)
Experiment: co-IP; Beclin 1 in complex with Bcl-2 in HEK293T cells, with or without S1 or S1g-2 (Additional file 1: Fig. S3B)

Beclin 1 (from UniProt Q14457 1-450) was tested, and the binding was “binds”.
